SMILES strings stand for the structures.

For the experiment, the system named is UDP glucuronyl transferase. Briefly: Rat liver microsomal glucuronidation. In general terms: Liver microsomes are vesicles of endoplasmic reticulum, rich in cytochrome P450 enzymes.

As for `Oc1ccc(Br)cc1` [p-Bromophenol], the Vmax came to 15.6 nmols/mg-min.

These data come from patent US5189212A, “Triarylethylene carboxylic acids with estrogenic activity” (University of Georgia Research Foundation, Inc., priority 1990, dated 1993).
